According to PubChem BioAssay AID2685 (National Center for Advancing Translational Sciences (NCATS), 2010):
This is one part of the list. Further columns of the screen follow, without active or inactive calls. Most of these compounds were active or inconclusive in the main read-out, so they are no random draw. The note in brackets gives the kind of curve behind each potency; many fits are weak.

Assay: qHTS Assay for Lipid Storage Modulators in Drosophila S3 Cells;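 on cell number change: cells counted by Cell Tracker Red CMTPX staining in the red channel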
Details: BODIPY lipid droplet fluorescence, 18-24 h; for cell number change: measured here: cell count max response, cells fed with added oleic acid
In short: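 Drosophila S3 cells got compounds at several concentrations plus oleic acid (400 uM solution). Laser-scanning cytometry with 488 nm excitation read lipid droplets at 500-530 nm and cells at 575-640 nm. Percent activity was relative to 20 uM Triacsin C.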

[1] = measured here: cell number channel AC50, cells fed with added oleic acid
[2] = measured here: lipid fluorescence (Fed channel) AC50, cells fed with added oleic acid

SMILES | cell number change [%] | AC50 [1] | AC50 [2]
Cc1ccc(S(=O)(=O)NCc2cn3ccccc3n2)c(C)c1 | -17.6 | – | –
COCCN(CCOC)c1nc(-c2ccc(C)cc2)nc2ccccc12 | 36.5 | 29100 nM [rising, single point] | 820 nM [falling, single point]
CC(C)C(c1nnnn1C1CCCC1)N1CCC(C(N)=O)CC1 (centres undefined) | 3 | – | 820 nM [rising, single point]
O=S(=O)(c1ccc(F)cc1)N1CCN(CC(O)COCc2cccs2)CC1 (centres undefined) | 6.07 | – | 29100 nM [rising, single point]
CN(C)C(=O)c1cc(C(=O)c2ccc(C(F)(F)F)cc2F)c[nH]1 | – | – | 580 nM [falling, single point]
O=C(c1ccc(Cl)c(S(=O)(=O)N2CCCCC2)c1)N1CCCCC1 | -4.95 | – | –
CCC1CCCCN1CCCNC(=O)c1ccc2c(=O)n(Cc3ccc(OC)cc3)c(=O)[nH]c2c1 (centres undefined) | -8.31 | – | 4.11 nM [rising, full curve, poor fit]
Oc1ccc(-c2sc(Nc3ccccc3)n[n+]2-c2ccc(F)cc2)cc1 | 2.4 | – | –
Cc1ccccc1-n1cnnc1SCC(=O)Nc1cccnc1Cl | -2.04 | – | 3660 nM [falling, single point]
CCOc1ccccc1NC(=O)CCNS(=O)(=O)c1cccc2nonc12 | -0.417 | – | 130 nM [rising, single point]
COC(=O)Cn1c(=O)c2c(nc(Br)n2CC(=O)OC)n(C)c1=O | 22.5 | – | 820 nM [falling, single point]
Cc1cccc(NC(=O)Cn2cnc3ccccc3c2=O)c1C | -13.2 | – | 18400 nM [falling, single point]
Cc1ccc(-c2nnn(CC(=O)N(c3ccccc3)C(C(=O)NC3CCCC3)c3ccncc3)n2)o1 (centres undefined) | 28.2 | – | –
CC(NC(=S)NC1CCCCC1)C(c1cccs1)N1CCOCC1 (centres undefined) | -6.46 | – | 1840 nM [falling, partial curve, poor fit]
CCOCC(=O)Nc1ccccc1C(=O)OCC | 66.7 | – | 18400 nM [rising, partial curve]
CCCCn1c(N)c(N(CCC(C)C)C(=O)C2CCCC2)c(=O)[nH]c1=O | 21.3 | – | 259 nM [rising, partial curve, poor fit]
COc1ccccc1NC(=O)NC1(C(=O)N2CCN(C)CC2)CCCCC1 | 8.4 | – | 29100 nM [falling, single point]
O=C(COC(=O)c1ccc(O)cc1O)NC1CCCCCC1 | -18.5 | – | 29100 nM [falling, single point]
c1ccc(-c2nn3c(C4CCCCC4)nnc3s2)cc1 | 9.41 | – | 2060 nM [rising, single point]
C=CCn1c(=O)/c(=C/c2ccc(Cl)cc2)s/c1=C(/C#N)c1nnc2n1CCCCC2 | -4.87 | – | 651 nM [rising, partial curve, poor fit]
O=C(c1ccc(F)cc1)N1CCN=C1c1ccccc1 | 1 | – | 3660 nM [rising, single point]

SMILES | cell number change [%] | AC50 [1] | AC50 [2]
COc1cccc(C(C(=O)NC2CCCC2)N(C(=O)c2csnn2)C2CC2)c1 (centres undefined) | -7.62 | – | –
CC1CN(Cc2ccccc2)c2nc3c(c(=O)[nH]c(=O)n3C)n2C1 (centres undefined) | 41.6 | 6510 nM [rising, partial curve] | 7310 nM [rising, partial curve]
O=C(Cc1ccccc1)Nc1c(C(=O)N2CCOCC2)cnn1-c1ccccc1 | -0.143 | – | 2590 nM [falling, full curve, poor fit]
O=C(NNC(=O)c1ccccc1-c1ccccc1C(=O)O)c1cccc([N+](=O)[O-])c1 | -4.91 | – | –
Cc1ccc(S(=O)(=O)NCCC(=O)Oc2ccc3ccc(=O)oc3c2)cc1 | – | – | 920 nM [falling, full curve, poor fit]
C=C(C)Cn1c(CCNC(=O)c2ccco2)nc2ccccc21 | – | – | 8.2 nM [falling, full curve, poor fit]
COc1ccc(NC(=O)NC2(C(=O)N3CCCC(C)C3)CCCCC2)cc1 (centres undefined) | 30.8 | – | –
CN1C(=O)CSC1=S | 14.4 | – | 580 nM [falling, single point]
Cc1ccc(S(=O)(=O)NC(=O)N2CCCC(C)(C)C2)cc1 | 1.98 | – | –
CC(=O)Nc1ccc(/C=C(\C#N)C(=O)NCc2ccccc2)cc1 | -44 | 23100 nM [falling, single point] | 2310 nM [falling, partial curve, poor fit]
Cc1ccccc1C1C(C#N)=C2N=C(N)c3ccccc3N2C2=C1C(=O)CCC2 (centres undefined) | – | 4110 nM [rising, partial curve, poor fit] | 6510 nM [rising, partial curve, poor fit]
Cc1nn(CCCC(=O)NCCCN2CCN(C)CC2)c(=O)c2c1sc1ccccc12 | 4.45 | – | –
CCOC(=O)c1[nH]c2cc3c(cc2c1NC(=O)CN1CC(C)CC(C)C1)OCO3 (centres undefined) | -0.511 | – | 2590 nM [rising, partial curve]
CC(C)N(C(=O)COC(=O)c1ccc(Cl)c(S(N)(=O)=O)c1)C(C)C | -25.7 | – | 29100 nM [falling, single point]
COc1ccccc1-c1cc(C(=O)N/N=C\c2cn(C)nc2C)c2ccccc2n1 | 15.2 | – | 1030 nM [rising, partial curve]
CN(CCO)c1ccc(-c2n[nH]c(=O)c3ccccc23)cc1[N+](=O)[O-] | 15.6 | – | 580 nM [falling, single point]
O=C(CCc1ccc(S(=O)(=O)N2CCOCC2)cc1)N/N=C/c1ccc(F)cc1F | 79.2 | 16400 nM [rising, single point] | –
CC(C)C(OC(=O)/C=C/c1ccc2c(c1)OCO2)C(=O)NC(N)=O (centres undefined) | 90.7 | 29100 nM [rising, partial curve] | 130 nM [rising, single point]
O=C(CN1CCC(NC(=O)C2CC2)CC1)Nc1ccccc1[N+](=O)[O-] | 21.1 | – | 562 nM [rising, full curve, poor fit]
CCC(=O)c1ccc(OCC(=O)N2CCc3cc(OC)c(OC)cc3C2)cc1 | – | – | 6510 nM [rising, single point]
COc1ccc(/C=C(/NC(=O)c2ccc(OC)c(OC)c2)C(=O)NCCc2c[nH]c3ccccc23)cc1 | 8.28 | – | –

SMILES | cell number change [%] | AC50 [1] | AC50 [2]
CNc1c([N+](=O)[O-])cnn1-c1ccc(C)cc1 | -23.6 | – | 14600 nM [falling, partial curve, poor fit]
Nc1nc(SCCO)[nH]c(=O)c1NC(=O)c1ccccc1F | 23.2 | 4.61 nM [rising, full curve, poor fit] | 5.8 nM [rising, full curve, poor fit]
CCN(C(=O)c1c(-c2ccccc2Cl)noc1C)C1CCCCC1 | -23 | 231 nM [falling, full curve, poor fit] | –
Cc1ccc(NC(=O)NC(=O)N(C(C)C)S(C)(=O)=O)nc1 | -31 | 146 nM [falling, full curve, poor fit] | 5800 nM [falling, full curve]
O=C(Nc1ncnc2sc3c(c12)CCCCC3)c1ccc(F)cc1 | -34.8 | 16400 nM [falling, single point] | 116 nM [rising, full curve, poor fit]
O=C(CS(=O)(=O)Cc1ccccc1)N1CCc2ccccc2C1 | -8.27 | – | 20600 nM [rising, single point]
COCc1cc(C)nc(N2CCNCC2)c1C#N | -73.8 | 5800 nM [falling, partial curve, poor fit] | 6510 nM [falling, single point]
Cc1ncc(CN2CCCC(C(=O)Nc3ccc(-c4cccc(F)c4)cc3)C2)s1 (centres undefined) | -20.4 | – | –
CC(C)CC(OC(=O)c1cccs1)C(=O)NCc1cccs1 (centres undefined) | 9.48 | – | 16400 nM [rising, partial curve, poor fit]
CCCS(=O)(=O)c1nc(S(=O)(=O)c2ccc(C)cc2)c(NCCCN2CCOCC2)s1 | 18.6 | – | 25900 nM [rising, single point]
Cc1cc(=O)oc2cc(NC(=O)c3cccc(S(=O)(=O)N(C)C)c3)ccc12 | -31.6 | – | –
Cc1nc2n[nH]c(N)c2c2c1COC(C)(C)C2 | -7.32 | – | 3260 nM [rising, single point]
Fc1ccc(-c2csc(=S)[nH]2)cc1 | 37.3 | 794 nM [rising, full curve, poor fit] | 112 nM [rising, full curve]
Cc1ccccc1C(=O)Nc1ccccc1-c1nnn(CC(=O)Nc2ccc3c(c2)OCCO3)n1 | 16.3 | – | –
O=C(O)CCNS(=O)(=O)c1cccc(Br)c1 | -8.8 | – | –
O=C(Nc1ccccc1N1CCCC1)c1ccc2ccccc2c1 | 19.6 | 7.31 nM [rising, full curve, poor fit] | –
O=Cc1cc(Br)c(OC(=O)N2CCOCC2)c(Br)c1 | -33.3 | – | –
COC(=O)CC1COc2ccccc2N1C(=O)c1cc(OC)c(OC)c(OC)c1 (centres undefined) | 10.7 | – | 65.1 nM [rising, full curve, poor fit]
Cc1nn(-c2ccccc2)c(C)c1/C=N/NC(=O)c1cc(-c2ccc(Cl)s2)[nH]n1 | -33.9 | 7310 nM [falling, partial curve, poor fit] | –
CCCCNC(=O)Nc1cc(C(=O)OC)ccc1C | 25.4 | – | 5.17 nM [rising, full curve, poor fit]

Single values from the list:
Value of O=C(O)CCNS(=O)(=O)c1cccc(Br)c1 under cell number change [%]: -8.8
Value of O=C(Nc1ncnc2sc3c(c12)CCCCC3)c1ccc(F)cc1 under cell number change [%]: -34.8
Value of Cc1ccc(NC(=O)NC(=O)N(C(C)C)S(C)(=O)=O)nc1 under AC50 [2]: 5800 nM [falling, full curve]
